Results published in article PMC12377818.
Results are given in words; binding and its absence hold for the method and conditions named. In cells and extracts the contact can be indirect. These calls come from enrichment with a bait or labelling near it, and not all partners need be listed.

Chains of the proteins cited; added tags and fusions are not shown.
UniProt Q921F2: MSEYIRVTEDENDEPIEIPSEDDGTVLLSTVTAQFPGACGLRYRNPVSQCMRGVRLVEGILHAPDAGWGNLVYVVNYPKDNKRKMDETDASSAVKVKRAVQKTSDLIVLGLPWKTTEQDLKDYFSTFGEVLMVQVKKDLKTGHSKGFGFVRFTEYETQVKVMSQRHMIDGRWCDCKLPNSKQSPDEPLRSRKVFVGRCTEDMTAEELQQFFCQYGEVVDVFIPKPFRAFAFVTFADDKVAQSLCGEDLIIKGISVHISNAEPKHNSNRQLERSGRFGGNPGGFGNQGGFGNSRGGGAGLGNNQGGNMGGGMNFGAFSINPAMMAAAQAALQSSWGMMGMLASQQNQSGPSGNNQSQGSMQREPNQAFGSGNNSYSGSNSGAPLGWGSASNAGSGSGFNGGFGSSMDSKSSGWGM

T1: PDHA2 (pyruvate dehydrogenase E1 subunit alpha 2) (mouse (endogenous in testis)) (UniProt P35487)
T1 sequence: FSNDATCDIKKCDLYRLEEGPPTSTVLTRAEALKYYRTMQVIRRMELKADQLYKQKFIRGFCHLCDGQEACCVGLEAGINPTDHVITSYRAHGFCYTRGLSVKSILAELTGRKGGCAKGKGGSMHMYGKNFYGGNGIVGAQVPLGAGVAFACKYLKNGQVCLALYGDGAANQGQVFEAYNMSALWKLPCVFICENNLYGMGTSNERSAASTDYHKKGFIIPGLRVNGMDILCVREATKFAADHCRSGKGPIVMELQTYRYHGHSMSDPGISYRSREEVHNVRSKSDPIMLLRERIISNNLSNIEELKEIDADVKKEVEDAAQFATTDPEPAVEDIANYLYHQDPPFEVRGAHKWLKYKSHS

B1: PDHB (pyruvate dehydrogenase E1 subunit beta) (protein, UniProt Q9D051 31-359)
chain: VQLTVREAINQGMDEELERDEKVFLLGEEVAQYDGAYKVSRGLWKKYGDKRIIDTPISEMGFAGIAVGAAMAGLRPICEFMTFNFSMQAIDQVINSAAKTYYMSAGLQPVPIVFRGPNGASAGVAAQHSQCFAAWYGHCPGLKVVSPWNSEDAKGLIKSAIRDNNPVVMLENELMYGVAFELPAEAQSKDFLIPIGKAKIERQGTHITVVAHSRPVGHCLEAAAVLSKEGIECEVINLRTIRPMDIEAIEASVMKTNHLVTVEGGWPQFGVGAEICARIMEGPAFNFLDAPAVRVTGADVPMPYAKVLEDNSVPQVKDIIFAVKKTLNI
B2: PDHX (protein, UniProt Q8BKZ9 54-501)
chain: ADPIKVLMPSLSPTMEQGNIVKWLRKEGEAVSAGDSLCEIETDKAVVTLDANDDGILAKIVVEEGAKNIQLGSLIALMVEEGEDWKQVEIPKDVSAPPPVSKPPAPTQPSPQPQIPCPARKEHKGTARFRLSPAARNILEKHSLDASQGTATGPRGIFTKEDALKLVELKQMGKITESRPASAPPPSLSASVPPQATAGPSYPRPMTPPVSIPGQPNAAGTFTEIPASNIRRVIAKRLTESKSTVPHAYATADCDLGAVLKVRRDLVKDDIKVSVNDFIIRAAAVTLKQMPGVNVTWDGEGPKQLPSVDISVAVATDKGLITPIIKDAAAKGIQEIADSVKVLSKKARDGKLMPEEYQGGSFSISNLGMFGIDEFAAVINPPQACILAVGRFRPVLKLTEDEEGNPQLQQHQLITVTMSSDSRVVDDELATRFLETFKANLENPMRLG
B3: DLD (protein, UniProt O08749 36-509)
chain: ADQPIEADVTVIGSGPGGYVAAIKSAQLGFKTVCIEKNETLGGTCLNVGCIPSKALLNNSHYYHMAHGKDFASRGIEIPEVRLNLEKMMEQKHSAVKALTGGIAHLFKQNKVVHVNGFGKITGKNQVTATKADGSTQVIDTKNILVATGSEVTPFPGITIDEDTIVSSTGALSLKKVPEKLVVIGAGVIGVELGSVWQRLGADVTAVEFLGHVGGIGIDMEISKNFQRILQRQGFKFKLNTKVTGATKKSDGKIDVSVEAASGGKAEVITCDVLLVCIGRRPFTQNLGLEELGIELDPKGRIPVNNRFQTKIPNIYAIGDVVAGPMLAHKAEDEGIICVEGMAGGAVHIDYNCVPSVIYTHPEVAWVGKSEEQLKEEGIEFKIGKFPFAANSRAKTNADTDGMVKILGHKSTDRVLGAHILGPGAGEMVNEAALALEYGASCEDIARVCHAHPTLSEAFREANLAAAFGKPINF
B4: PDHA1 (pyruvate dehydrogenase E1 subunit alpha 1) (protein, UniProt P35486 30-390)
chain: FANDATFEIKKCDLHRLEEGPPVTTVLTREDGLKYYRMMQTVRRMELKADQLYKQKIIRGFCHLCDGQEACCVGLEAGINPTDHLITAYRAHGFTFTRGLPVRAILAELTGRRGGCAKGKGGSMHMYAKNFYGGNGIVGAQVPLGAGIALACKYNGKDEVCLTLYGDGAANQGQIFEAYNMAALWKLPCIFICENNRYGMGTSVERAAASTDYYKRGDFIPGLRVDGMDILCVREATKFAAAYCRSGKGPILMELQTYRYHGHSMSDPGVSYRTREEIQEVRSKSDPIMLLKDRMVNSNLASVEELKEIDVEVRKEIEDAAQFATADPEPPLEELGYHIYSSDPPFEVRGANQWIKFKSVS
B5: HDAC6 (protein, UniProt Q9Z2V5 1-1149)
chain: MTSTGQDSSTRQRKSRHNPQSPLQESSATLKRGGKKCAVPHSSPNLAEVKKKGKMKKLSQPAEEDLVVGLQGLDLNPETRVPVGTGLVFDEQLNDFHCLWDDSFPESPERLHAIREQLILEGLLGRCVSFQARFAEKEELMLVHSLEYIDLMETTQYMNEGELRVLAETYDSVYLHPNSYSCACLATGSVLRLVDALMGAEIRNGMAVIRPPGHHAQHNLMDGYCMFNHLAVAARYAQKKHRIQRVLIVDWDVHHGQGTQFIFDQDPSVLYFSIHRYEHGRFWPHLKASNWSTIGFGQGQGYTINVPWNQTGMRDADYIAAFLHILLPVASEFQPQLVLVAAGFDALHGDPKGEMAATPAGFAHLTHLLMGLAGGKLILSLEGGYNLRALAKGVSASLHTLLGDPCPMLESCVVPCASAQTSIYCTLEALEPFWEVLERSVETQEEDEVEEAVLEEEEEEGGWEATALPMDTWPLLQNRTGLVYDEKMMSHCNLWDNHHPETPQRILRIMCHLEEVGLAARCLILPARPALDSELLTCHSAEYVEHLRTTEKMKTRDLHREGANFDSIYICPSTFACAKLATGAACRLVEAVLSGEVLNGIAVVRPPGHHAEPNAACGFCFFNSVAVAARHAQIIAGRALRILIVDWDVHHGNGTQHIFEDDPSVLYVSLHRYDRGTFFPMGDEGASSQVGRDAGIGFTVNVPWNGPRMGDADYLAAWHRLVLPIAYEFNPELVLISAGFDAAQGDPLGGCQVTPEGYAHLTHLLMGLAGGRIILILEGGYNLASISESMAACTHSLLGDPPPQLTLLRPPQSGALVSISEVIQVHRKYWRSLRLMKMEDKEECSSSRLVIKKLPPTASPVSAKEMTTPKGKVPEESVRKTIAALPGKESTLGQAKSKMAKAVLAQGQSSEQAAKGTTLDLATSKETVGGATTDLWASAAAPENFPNQTTSVEALGETEPTPPASHTNKQTTGASPLQGVTAQQSLQLGVLSTLELSREAEEAHDSEEGLLGEAAGGQDMNSLMLTQGFGDFNTQDVFYAVTPLSWCPHLMAVCPIPAAGLDVSQPCKTCGTVQENWVCLTCYQVYCSRYVNAHMVCHHEASEHPLVLSCVDLSTWCYVCQAYVHHEDLQDVKNAAHQNKFGEDMPHSH

Target: T1, PDHA2 (pyruvate dehydrogenase E1 subunit alpha 2) (mouse (endogenous in testis))
Experiment: affinity purification with mass spectrometry; IP with anti-PDHA2 antibody on Dynabeads Protein G from testis lysates of 10-week-old male mice (NP40 lysis buffer, 1 h at 4°C, three washes); LC-MS/MS, MASCOT, Scaffold5

binding, binds:
TARDBP (from UniProt Q921F2 1-414), PDK3 (mouse (endogenous in testis)), B1, B2, B3, B4, B5
